Primary screen of a compound library

The values are deposited in ChEMBL (CHEMBL3988442, “University of Dundee, Small-Polar-MMV Screening Library” (2021)).

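Whole-parasite assay of Trypanosoma brucei over 72 hours; the read-out is not stated. Compounds at 30 µM. The record gives no direction; compounds that gave an IC50 in retests scored well above the rest, so higher reads as stronger inhibition. Values scatter widely below zero; nearly all retest evidence comes from the higher of the two concentrations used. Of about 64,000 compounds tested this way, about 940 (1.5%) reached 50% or more in at least one test.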

The filed quantity is “Percent Effect” (%).
The controls that fix the scale are not given in the record; negative values are as filed.
This is an unselected part of the compounds tested.

| structure | effect |
|---|---|
| `CN(C)C(C(=O)N1CCN(CCn2cccc2)CC1)c1cccc(F)c1` (centres undefined) | -29.25% |
| `CNC(=O)CNC(=O)Nc1ccc(Br)c(F)c1` | -68.48% |
| `[H][C@@]12CN(S(=O)(=O)c3ccccc3)C[C@@]1([H])N(CC1CC1)C(=O)CO2` | -15.31% |
| `CN1CCCN(C[C@@H]2CN(C(=O)CCC3CCCC3)C[C@@H]2CO)CC1` | 31.05% |
| `Cc1cn2c(=O)c(-c3ccnc(NC4CCOCC4)n3)cnc2s1` | -9.786% |
| `O=C(O)CCn1ccc2c(nnc3c(-c4ccc(F)cc4)cnn32)c1=O` | -41.42% |
| `O=C(NCCNc1ncccn1)N1CCCC(C(F)(F)F)C1` (centres undefined) | -6.98% |
| `CCN(C)S(=O)(=O)NCC(O)c1c(Cl)cccc1Cl` (centres undefined) | -61.52% |
| `Cn1cc(CNc2cnn(CC3CCCO3)c2)c(-c2ccncc2)n1` (centres undefined) | -15.31% |
| `CNS(=O)(=O)c1ccc(C(=O)N2CCCC2c2cnn(C)c2)o1` (centres undefined) | -10.22% |
| `CCOc1ccc(NC(=O)c2scnc2CC)cc1CO` | -61.12% |
| `Cn1cc(CNC2CC3(CCN(S(C)(=O)=O)CC3)c3ccccc32)cn1.O=C(O)C(F)(F)F` (centres undefined) | -14.03% |
| `CC(C)n1cc(CN2CCCN(C(=O)C(C)n3cncn3)CC2)cn1` (centres undefined) | -10.53% |
| `CC(O)CN(C(=O)NC1CCN(CC2CCCCC2)CC1)C(C)C` (centres undefined) | 2.22% |
| `Cc1cnc2c(S(=O)(=O)NCC3CC3)cccc2c1` | 15.46% |
| `CCOc1cc(C(=O)n2cc(C)cn2)cc(OCC)c1OCC` | -15.96% |
| `COCCNc1ccc(CC2CCCN(C3CCOCC3)C2)nn1` (centres undefined) | -22.53% |
| `CCc1ccc(CNCC2CCN(CCO)CC2)cc1` | 14.46% |
| `CN(C(=O)Cc1ccc(NC(=O)NC2CCC2)cc1)c1ccccc1` | -6.814% |
| `CSCc1cccc(S(=O)(=O)NCc2cnn(C)c2C)c1` | -41.77% |
| `O=C(NC1CC1)c1ccnc(N2CCOC(c3ccc(Cl)c(Cl)c3)C2)c1` (centres undefined) | 2.444% |
| `CC(C)C(NC(=O)Cn1ccc(=O)n(C)c1=O)c1ccc(F)cc1` (centres undefined) | -4.87% |
| `Cc1cnn(CC(C)NCc2ccc(C#N)cc2)c1` (centres undefined) | -2.492% |
| `CC(C)(C)C(=O)N1CCCc2c(cnn2-c2ccccc2)C1` | -29.67% |
| `Cc1cc(-c2cnc(N3CCNC(=O)C3)nc2-c2ccc(C)o2)on1` | 37.39% |
| `[H][C@]12CC[C@]([H])(CN(Cc3ccccc3OC(F)F)C1)N(CC1CC1)C2=O` | 19.83% |
| `Cc1cc(CNC(=O)CC2CN(C(=O)OC(C)(C)C)C2)ccc1F` | -11% |
| `NC(=O)CSc1ccccc1NC(=O)C1CCCC1` | -28.53% |
| `Cc1nnc(N2CCCC3(CN(Cc4ccc(C)s4)CCO3)C2)o1.O=C(O)C(F)(F)F.O=C(O)C(F)(F)F` (centres undefined) | -0.535% |
| `CCCc1cc(NCc2nc(COC)no2)n2nccc2n1` | -63.24% |
| `Cc1ccc(N2CCC3(CCN(Cc4csc(C)n4)CC3)CC2)nn1` | -10.9% |
| `O=C1CC(c2ccccc2)c2c(c(C(=O)O)cn2-c2ccccc2)N1` (centres undefined) | -0.2399% |
| `CC(C)c1ccc(CNC(c2ccc(F)cn2)C(C)C)cc1` (centres undefined) | -10.78% |
| `COc1ccccc1C1CNC(=O)c2nc(-c3ncc[nH]3)[nH]c2C1` (centres undefined) | 12.93% |
| `O=C(C1NCCc2[nH]cnc21)N1CCC2(CC1)CNc1ccccc12` (centres undefined) | 20.84% |
| `COCCN1C(=O)CC[C@]12CC[C@@H](NCc1cccnc1OC)CC2.O=C(O)C(F)(F)F.O=C(O)C(F)(F)F` | -31.2% |
| `O=C(O)C(F)(F)F.O=C(O)C(F)(F)F.[H][C@@]12CN(Cc3cnn(C)c3)CCO[C@]1([H])CN(C1CCCC1)C2` | -53.67% |
| `Cc1cnc(NC(=O)c2csc(NCC(C)C)n2)s1` | 4.824% |
| `COCCN1CCC(Nc2ccc(C#N)cc2F)CC1` | -9.236% |
| `CC(C)c1nccn1C1CCCN(C(=O)c2cc(C3CC3)on2)C1` (centres undefined) | 16.27% |
| `Cn1cccc1C(=O)N1CCc2ccc(=O)n(C)c2CC1` | -64.66% |
| `CS(=O)(=O)NCc1cnc2n1CCN(Cc1ccsc1)CC2.O=C(O)C(F)(F)F` | 6.329% |
| `COc1ccc2c(c1)CN(Cc1nc3c(cnn3C)c(=O)[nH]1)CC2` | 3.463% |
| `Cc1cccnc1NCCNC(=O)C1CCN(C(=O)N(C)C)CC1` | -34.62% |
| `Cc1cc(C)n(CC2CCCN2C(=O)Cc2csc(C)n2)n1` (centres undefined) | -14.21% |
| `O=C(NCCCN1CCN(c2ncccn2)CC1)NCC1CCOC1` (centres undefined) | 3.228% |
| `CCn1ccnc1CN1CCCC(CO)(Cc2cccc(OC)c2)C1` (centres undefined) | -22.09% |
| `CN1CCN(Cc2ccncc2)Cc2cccnc21` | 40.44% |
| `CCCS(=O)(=O)N1CCC(NC(=O)c2ccc(Cl)s2)CC1` | 12.9% |
| `CCCc1cncnc1N1CCC(NCCc2nc(O)cc(O)n2)CC1` | -43.88% |
| `COc1cccc(OCc2cc(C(=O)NC[C@@H]3CCCN3)n[nH]2)c1` | -1.957% |
| `CC(C)CN1CCNC(=O)C12CCN(C(=O)c1ccccn1)CC2` | -18.4% |
| `Cc1cc(N)nc(SC2CCCN(Cc3ccccc3)C2=O)n1` (centres undefined) | 10.6% |
| `Cc1cc(C)n(CC2CCCCN2CC(=O)Nc2ccncc2)n1` (centres undefined) | -1.497% |
| `Cc1ccc(CN2Cc3cnn(C)c3C(COCC3CC3)C2)o1` (centres undefined) | -4.477% |
| `CN(C)C(=O)c1nn(C)c2c1CN(Cc1cccs1)C2.O=C(O)C(F)(F)F.O=C(O)C(F)(F)F` | -15.03% |
| `O=C1N(CCO)CCCC12CCN(Cc1noc(C3CCCC3)n1)C2` (centres undefined) | -15.79% |
| `CC(CCc1ccc(O)cc1)NC1CCN(S(C)(=O)=O)CC1` (centres undefined) | -2.001% |
| `CN(C)C(=O)C1CCN(Cn2nc(-c3ccc(F)cc3)oc2=O)CC1` | -10.37% |
| `Cc1cccnc1NC(=O)C1CCN(C(=O)C(C)C)CC1` | -12.72% |
| `CC1COc2ccccc2N1C(=O)CCc1cscn1` (centres undefined) | -26.21% |
| `COc1cc(CNc2nncs2)cc(OC)c1OC` | -8.078% |
| `CC(C)N1CCOC(CC(=O)N2CCCN(Cc3ccncc3)CC2)C1` (centres undefined) | -15.26% |
| `CC(=O)N1CCc2c(nc(N(C)C)nc2N(C)CCC2CCCCO2)C1` (centres undefined) | -47.36% |
| `COC(=O)c1cc(CN2CCN(c3nc(C)cnc3C)CC2)ccc1O` | 1.166% |
| `O=C(NCCc1csc(-c2cnccn2)n1)c1cnn[nH]1` | -12.23% |
| `CO[C@H]1CCN(C(=O)c2ccc3[nH]nnc3c2)C[C@@]12CCCO2` | -9.596% |
| `COC(=O)N1CCCN(C(=O)NCc2ccc(Cl)s2)CC1` | -1.892% |
| `CCOCC1CN(C(=O)COc2ccccc2C)Cc2ncn(C)c21.O=C(O)C(F)(F)F` (centres undefined) | -79.62% |
| `CCOc1ccc(Cl)c(C(=O)NC(C(N)=O)c2ccccc2)n1` (centres undefined) | -40.16% |
| `CCc1nc(CN2CCCC(NCc3nc4ccccc4o3)C2)no1` (centres undefined) | -12.57% |
| `O=C(O)C(F)(F)F.O=C(O)C(F)(F)F.O=C(O)C(F)(F)F.[H][C@@]12CCN(Cc3nccs3)C[C@]1([H])[C@@H](CNc1ncccn1)OC2` | -12.44% |
| `CC(C)NC(=O)c1cc2c([nH]c1=O)CC(c1cccs1)CC2=O` (centres undefined) | -23.6% |
| `CCCOCC(=O)N1CCc2nc(NC)nc(C(=O)N3CCCC3)c2C1` | -12.59% |
| `COc1ccc2c(c1)C1(CCN(Cc3ccoc3)CC1)N(C)CC2` | 26.83% |
| `Cc1cnc(CC2COCCN(C(=O)CN3CCCCC3)C2)cn1` (centres undefined) | -9.695% |
| `CC(OCC1CC1)C(=O)Nc1cccc(C(=O)Nc2ccncc2)c1` (centres undefined) | 2.837% |
| `NC(=O)N1CCC2(CC1)CC(=O)N(CC1CCCO1)c1ccccc12` (centres undefined) | 12.91% |
| `CN1CC(C(=O)Nc2ccc(OCC(F)(F)C(F)F)nc2)CC1=O` (centres undefined) | 5.211% |
| `Fc1ccc(C2(c3noc(CCN4CCCCO4)n3)CCOC2)cc1` (centres undefined) | -77.08% |
| `N[C@H]1CN(Cc2cnc(N3CCCC3)nc2)C[C@@H]1C1CC1` | 0.4743% |
| `COCc1cc(C[C@@H]2CC[C@H](O)[C@@H](CNCC(C)C)O2)no1` | -4.395% |
| `CCS(=O)(=O)N1CCN(C(=O)NC(C)C)CC2(CC(=O)N(C)C2)C1` (centres undefined) | -6.946% |
| `Cc1nc(CN2CCCC(N(C)CC(=O)Nc3cccnc3)C2)no1` (centres undefined) | -5.155% |
| `[H][C@@]12OCCN(C(=O)C3=CCCC3)[C@@]1([H])CC[C@@H]2OCC1CC1` | -8.096% |
| `Cc1ccc(CNC(CCO)C2CCCCC2)nc1` (centres undefined) | -10.35% |
| `Cn1c2c(ccc1=O)CC(NC(=O)c1ccsc1)CC2` (centres undefined) | -20.52% |
| `Cl.[H][C@@]12OCCC[C@]1([H])NC[C@@H]2NC(=O)c1cscn1` | 12.19% |
| `CCc1cc(N2CCC(n3cc(C(=O)NCC(C)C)nn3)CC2)ncn1` | 19.49% |
| `CCN(C(C)=O)c1nc(CN2CCN(c3nccs3)CC2)cs1` | -120.5% |
| `O=C(N1CCOCC1)N1CCc2ncnc(Oc3cccnc3)c2CC1.O=C(O)C(F)(F)F` | 1.14% |
| `O=C(Cn1cc(I)cn1)N1CCNC1=O` | -32.96% |
| `COc1ccc(CN(CC2CCCO2)C(=O)CN2CCCCC2=O)cc1` (centres undefined) | -1.271% |
| `COc1ccc(C[C@H]2CNCC[C@@H]2OC)cc1.O=C(O)C(F)(F)F` | -9.891% |

The last 5 entries again:

structure,effect
CCN(C(C)=O)c1nc(CN2CCN(c3nccs3)CC2)cs1,-120.5%
O=C(N1CCOCC1)N1CCc2ncnc(Oc3cccnc3)c2CC1.O=C(O)C(F)(F)F,1.14%
O=C(Cn1cc(I)cn1)N1CCNC1=O,-32.96%
COc1ccc(CN(CC2CCCO2)C(=O)CN2CCCCC2=O)cc1 (centres undefined),-1.271%
COc1ccc(C[C@H]2CNCC[C@@H]2OC)cc1.O=C(O)C(F)(F)F,-9.891%